Some of the results follow.

Amino acid sequences for entries named in this document (tags omitted).
UniProt Q0JBA9, entry or part of it: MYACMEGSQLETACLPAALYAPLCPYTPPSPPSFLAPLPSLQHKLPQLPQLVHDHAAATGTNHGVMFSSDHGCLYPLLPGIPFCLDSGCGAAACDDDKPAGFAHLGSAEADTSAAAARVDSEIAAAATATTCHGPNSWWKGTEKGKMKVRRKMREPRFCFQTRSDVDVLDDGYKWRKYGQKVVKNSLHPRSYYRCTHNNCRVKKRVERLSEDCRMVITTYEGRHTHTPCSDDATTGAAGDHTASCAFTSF

For the experiment, the target named is OsWRKY34 (Oryza sativa, UniProt Q0JBA9 1-250). The experiment in a line: protein-binding microarray (RPBM); PBS, 2% BSA, 51.3 ng/ul salmon testes DNA, 50 uM zinc acetate, 200 nM TF, 25 C, 1 h; high values mean tight binding. Particulars: protein: recombinant; tags: N-terminal polyhistidine and DsRed monomer fusion (pET32a); label: CyDye5-dUTP incorporated in the synthesized complementary strand; 3' TTTTT single-stranded linker to array surface; dsDNA, one strand shown. The essentials: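 The binding signal for each feature is its fluorescence intensity in arbitrary units. An Axon 4000B scanner was used to read a custom Agilent array that had been made double-stranded with Cy5-dUTP primer extension, blocked with 2% BSA, incubated at 25 °C for 1 h with 200 nM protein in PBS, 2% BSA, salmon testes DNA and 50 µM zinc acetate, and washed. The protein was an N-terminal polyhistidine–DsRed transcription factor fusion from E. coli BL21-CodonPlus, purified on Ni–NTA.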
With “GTCTCGCCGCCGCTTCGTCGCCGCCGCCGCAGCATCAGCCCGGAGTCACCTAGTGCAG”, the binding signal was 8180 fluorescence intensity (a.u.). As for “GGGGTTTTTGGGTGATGGCCAACGCCCTTGGCCTGCAGAACGGAGTCACCTAGTGCAG”, the figure is 9040 fluorescence intensity (a.u.); as for “GTCGCCTGCAGCATCTCTCCTTGGCTTCTTCAACTTACGTCGGAGTCACCTAGTGCAG”, 11900 fluorescence intensity (a.u.); as for “ATTTGGCTCTTCTGTTTTTTTTTTCGCTTTCTTTTTCTCGCGGAGTCACCTAGTGCAG”, 9480 fluorescence intensity (a.u.). As for “AATCTGACCGTGACCTATTCTGTTGCCATCTCTATGCAAGCGGAGTCACCTAGTGCAG”, the figure is 8520 fluorescence intensity (a.u.); as for “GAAATGTCAAATATTTGTTAAAAAGTCAACGGCGTCATACCGGAGTCACCTAGTGCAG”, 11900 fluorescence intensity (a.u.). As for “ATAAATTGCACCATCATCTCTCGCTTCTTGTCTTCGCAACCGGAGTCACCTAGTGCAG”, the figure is 11900 fluorescence intensity (a.u.). “ATTGCTGCCCGTATTCCTGTGAGATCGATATATATTGCTGCGGAGTCACCTAGTGCAG”: the binding signal was 8380 fluorescence intensity (a.u.). For the sequence “GGCAGGGGTTCGTCTTTCTTAGGTACGTTAAGAGTTGAAACGGAGTCACCTAGTGCAG”, the binding signal is 12100 fluorescence intensity (a.u.). As for “AATAGTGGGGATGGTGCATGTATTGAGTTTGTTGCTAGAGCGGAGTCACCTAGTGCAG”, the figure is 8850 fluorescence intensity (a.u.); as for “CTCTACTCCTGCCCGGAAACTTATTACTCCTTGTCACAGTCGGAGTCACCTAGTGCAG”, 12200 fluorescence intensity (a.u.); as for “TTTTTTAGTTTCAATTTTTGTTTTGCTTTTTCTCCCTTCTCGGAGTCACCTAGTGCAG”, 10300 fluorescence intensity (a.u.). As for “TCTCATCCATCCGTCCCACCATGTATATACCCGCCCACCACGGAGTCACCTAGTGCAG”, the figure is 9040 fluorescence intensity (a.u.); as for “ACCATTTGTGTTTATTCTTGTACATGTGCAGTGCGAGCTGCGGAGTCACCTAGTGCAG”, 9210 fluorescence intensity (a.u.); as for “GTGCCATCTTTTTTGTATCTTTCCTTTGATCATTTGCCTTCGGAGTCACCTAGTGCAG”, 11600 fluorescence intensity (a.u.). For “TCTTCCTCAGCATTTCCACCGCTCTTCCACGCACCCTACTCGGAGTCACCTAGTGCAG”, the binding signal was 12500 fluorescence intensity (a.u.).

Turning to “ACCGATTCCTCCGCCCCGACCTCCTCACCCACCCACCGGCCGGAGTCACCTAGTGCAG”, the binding signal was 8350 fluorescence intensity (a.u.).

In the case of “GATTTTTAGTGAATATAATGAAATTTCATAGGGGAGGGGCCGGAGTCACCTAGTGCAG”, the binding signal is 8930 fluorescence intensity (a.u.). As for “TCTTCTTTATCTACATCTTCTTCTGCTTCTTCCTTCCAGCCGGAGTCACCTAGTGCAG”, the figure is 9230 fluorescence intensity (a.u.). As for “GCTGCCGCTCTCGCCATACCGACTCGTGTCGCACGGTCGCCGGAGTCACCTAGTGCAG”, the figure is 8680 fluorescence intensity (a.u.). As for “AAAACACCAGGTAGACTGTTCAACTGATTGGTCTCACACCCGGAGTCACCTAGTGCAG”, the figure is 8790 fluorescence intensity (a.u.).

“GGGCGGGGAGGGAATCGATGACTTCTTCCCCTCCCACACGCGGAGTCACCTAGTGCAG”: the binding signal was 8490 fluorescence intensity (a.u.). As for “TTTTTTTTTTTTTTTGGTCTTGCTGTCTTGCGTGTATGCACGGAGTCACCTAGTGCAG”, the figure is 9690 fluorescence intensity (a.u.); as for “TTCGCGGGTGATGTGTTTCTGTTTTGTCCTGAAATTACAGCGGAGTCACCTAGTGCAG”, 9080 fluorescence intensity (a.u.). As for “TGGCTGAGCTTCTTTGCGTGTTCTTGTTTGGGTTTTGGGGCGGAGTCACCTAGTGCAG”, the figure is 18700 fluorescence intensity (a.u.).

As to “TTCCTTGTTCCTTGTAAACACACGATGTACGTTCTTGTTCCGGAGTCACCTAGTGCAG”, the binding signal is 12900 fluorescence intensity (a.u.).

For the sequence “GCCGCCTCATCCACCCCACGCCCACCGCCTCCGTGGACCGCGGAGTCACCTAGTGCAG”, the binding signal was 8570 fluorescence intensity (a.u.). As for “AGGCTGACATCCTTGACCCACATAATCGTTGACCTGGCTACGGAGTCACCTAGTGCAG”, the figure is 10300 fluorescence intensity (a.u.). As for “CGTCGTTGCCCTTGCTTTTGAGTGTTTGAAAGAGTTCATGCGGAGTCACCTAGTGCAG”, the figure is 10000 fluorescence intensity (a.u.); as for “CTTCTTTCCTATACCACCACCACCTTTCTGTGCTCCCAAACGGAGTCACCTAGTGCAG”, 8090 fluorescence intensity (a.u.). As for “ACAGTGAGTGTCAAGTTTTATATTCCTGGAATAAAGTTCACGGAGTCACCTAGTGCAG”, the figure is 8100 fluorescence intensity (a.u.); as for “AACGTGGAAGTGGATTGGGTGGTGGGTGGGGATCCACCTACGGAGTCACCTAGTGCAG”, 22100 fluorescence intensity (a.u.). For “TCTATTTCTTCACCTTTTTATGTTGCTATGGATTGAAATTCGGAGTCACCTAGTGCAG”, the binding signal was 8260 fluorescence intensity (a.u.). As for “CACTGATGCGGTGATGCCCGCACCGTGCCATCTCTCTCTCCGGAGTCACCTAGTGCAG”, the figure is 9280 fluorescence intensity (a.u.); as for “AGCCACCTTGTCGTTTTCCGCTCCTCACCTGCTCAACTTCCGGAGTCACCTAGTGCAG”, 9800 fluorescence intensity (a.u.); as for “ACTGGCCGGCCGTCCGTCGTCTTGGCTCGCGGCGGCATCCCGGAGTCACCTAGTGCAG”, 8620 fluorescence intensity (a.u.). As for “ATCTAGCACCCATCAGTTTTTCAGTAGTAGTGTGTGCAGACGGAGTCACCTAGTGCAG”, the figure is 8490 fluorescence intensity (a.u.); as for “CTAACATGGCATACCTTCCTCTGACCAAAATGTTCGTTCTCGGAGTCACCTAGTGCAG”, 8490 fluorescence intensity (a.u.); as for “CCACGCTATCCCATGCGATTCGAGAAGGTTCCACACACACCGGAGTCACCTAGTGCAG”, 8430 fluorescence intensity (a.u.). As for “GGTCAGCGTCTCCTTCCCGGTCTCATATGCCGCCTGCGCGCGGAGTCACCTAGTGCAG”, the figure is 9220 fluorescence intensity (a.u.). Turning to “CATGTACACACCCACAGTCATCTGCTCATGTTTTCACGGTCGGAGTCACCTAGTGCAG”, the binding signal was 11500 fluorescence intensity (a.u.). As for “TTAGGTCATTCCCTAATATTTTCGTTTTTCTTTTTTTTTTCGGAGTCACCTAGTGCAG”, the figure is 8870 fluorescence intensity (a.u.).

The values are drawn from article PMC7819943, “Rice protein-binding microarrays: a tool to detect cis-acting elements near promoter regions in rice”.
